The values that follow come from article PMC10275998.

The chains behind the UniProt entries cited, without tags or fusion partners. Where a name states a change or a piece, a line headed by the entry shows the natural chain unless it says otherwise.
UniProt Q9FLP5: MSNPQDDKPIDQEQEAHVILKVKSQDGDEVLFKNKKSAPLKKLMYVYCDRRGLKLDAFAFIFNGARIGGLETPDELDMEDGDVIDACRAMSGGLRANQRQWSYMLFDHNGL
UniProt P93002: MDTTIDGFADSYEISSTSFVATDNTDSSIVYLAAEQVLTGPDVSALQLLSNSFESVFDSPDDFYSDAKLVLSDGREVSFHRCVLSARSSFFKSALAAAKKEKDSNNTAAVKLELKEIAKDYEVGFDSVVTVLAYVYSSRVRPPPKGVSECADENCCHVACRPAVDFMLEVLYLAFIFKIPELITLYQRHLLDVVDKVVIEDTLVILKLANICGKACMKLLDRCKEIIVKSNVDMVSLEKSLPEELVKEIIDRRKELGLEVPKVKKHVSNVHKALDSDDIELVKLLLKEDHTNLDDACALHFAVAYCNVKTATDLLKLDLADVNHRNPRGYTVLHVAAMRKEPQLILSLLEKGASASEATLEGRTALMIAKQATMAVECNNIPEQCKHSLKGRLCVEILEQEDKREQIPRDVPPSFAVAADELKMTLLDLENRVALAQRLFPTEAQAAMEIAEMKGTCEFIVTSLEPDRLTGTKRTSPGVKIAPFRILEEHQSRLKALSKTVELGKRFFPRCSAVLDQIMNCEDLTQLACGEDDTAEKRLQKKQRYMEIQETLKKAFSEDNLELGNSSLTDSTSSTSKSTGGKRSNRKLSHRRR

Assay [1] has as its target SUMO3 (Arabidopsis), BiFC fusion (Arabidopsis) (UniProt Q9FLP5). The assay can be described thus: split reporter; competitive BiFC in N. benthamiana: NPR1 with SUMO3 or SUMO3ΔGG in the presence of NIb, NIb_(sim2) or SUMO1; nuclear YFP signal intensity.
For assay [2], the target named is sumoylation-defective mutant of SUMO3 (SUMOΔGG), BiFC fusion (Arabidopsis) (UniProt Q9FLP5). The assay is described as above.
Assay [3] addresses FLAG-4×Myc-SUMO3 (Arabidopsis) (Arabidopsis) (UniProt Q9FLP5). The assay can be described thus: co-IP; transient expression assay, SUMO3 and NPR1 in the presence and absence of NIb (Supplementary Fig. 11a).
The target of assay [4] is cLUC-SUMO3 (Arabidopsis) (Arabidopsis) (UniProt Q9FLP5). The assay can be described thus: split reporter; competitive split-luciferase in N. benthamiana leaves with a co-expressed competitor (NIb, NIb_(sim2), other potyviral NIbs, SUMO1 or GUS); 60 hpi, 10 μM D-luciferin.
Assay [5] deals with sumoylation-defective mutant of SUMO3 (SUMOΔGG), split-luciferase fusion (Arabidopsis) (UniProt Q9FLP5). Described as above.

No constants are given. Whether binding was seen depends on the method and setting. Binding seen in cells or lysates may run through a third protein. Binding calls can cover weak binding; strength is not graded here.

For the substance “N-terminal segment of YFP (YN)-fused Arabidopsis NPR1 (from UniProt P93002 1-593)”, the binding result in assay [1] and in assay [2] was “binds” each time. Turning to “NPR1-YFP (Arabidopsis) (from UniProt P93002 1-593)”, the binding entry in assay [3] was “binds”. Take “NPR1-nLUC (Arabidopsis) (from UniProt P93002 1-593)”: the binding result in assay [4] and in assay [5] was “binds” throughout.
